Measurements taken from the supplement of paper PMC7752906.
Counter-ions that a name gives are not always drawn. The list shows a part of the results. This data set is noisy: repeats of one test often differ as much as different tests do.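 Test system: Schistosoma mansoni schistosomula, roughly 40 per well, imaged in bright field over time and compared with wells given 0.1% DMSO. Distance read-out: the paper calls a drug a hit when its Mahalanobis distance is at least 2.47, three standard deviations above the DMSO control mean. Degeneracy is the share of worms classified opaque.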 Numbered stars: 1 amine (or outer) side, 2 acyl side, 3 side chain; on linkers, the order of the positions; unused ones are H or OH. Bridge positions count the residues as written; N and C are the ends. Square brackets hold non-standard residues; d marks the D form. Peptide text beside a SMILES is read from it. * marks the point of attachment. X1 = NC1=N[C@@H]([C@H](N[*:1])C(=O)[*:2])C[C@H](O)N1; ΔAla(Z-3-ureido) = NC(=O)N/C=C(\N)C(=O)O; β3hOrn = NCCC[C@H](N)CC(=O)*; Dap = NC[C@H](N)C(=O)O

The molecules below were run on Schistosoma mansoni schistosomula (assay: degeneracy (percent of somules classified as degenerate/opaque); higher = more parasite degeneration/death; extreme values may be limits of the assay). Conditions: 10 µM; 72 h.

Structure (SMILES)	degeneracy [%]
CC(Oc1ccccc1)C(=O)N[C@@H]1C(=O)N2[C@@H]1SC(C)(C)[C@@H]2C(=O)O (some centres not stated) [Phenethicillin Potassium]	3.23
COc1ccc(-c2cc(C(F)F)nn2-c2ccc(S(N)(=O)=O)cc2)cc1F [Deracoxib]	2.44
Cn1nnnc1SCC1=C(C(=O)O)N2C(=O)[C@@H](NC(=O)[C@H](OC=O)c3ccccc3)[C@H]2SC1 [Cefamandole Nafate]	22.7
C[C@]12CC[C@@H]3c4ccc(O)cc4CC[C@H]3[C@@H]1C[C@@H](O)[C@@H]2O [Estriol]	20.8
CCCCC(=O)O[C@]1(C(=O)CO)CC[C@H]2[C@@H]3CCC4=CC(=O)CC[C@]4(C)[C@H]3[C@@H](O)C[C@@]21C [Hydrocortisone Valerate]	3.12
CCc1cccc2c3c([nH]c12)C(CC)(CC(=O)O)OCC3 (configuration not stated) [Etodolac]	5.56
CC1=C(CC(=O)O)c2cc(F)ccc2/C1=C\c1ccc([S+](C)[O-])cc1 (configuration not stated) [Sulindac]	5.88
Cc1ccccc1N1C(=O)c2cc(S(N)(=O)=O)c(Cl)cc2NC1C (configuration not stated) [Metolazone]	3.23
Cc1cc(-n2c(=O)[nH]c(=O)n(C)c2=O)ccc1Oc1ccc(SC(F)(F)F)cc1 [Toltrazuril]	20
CC(C)COC(=O)c1ccc(N)cc1 [Isobutamben]	100
C=CC1=C(C(=O)O)N2C(=O)[C@@H](NC(=O)/C(=N\OCC(=O)O)c3csc(N)n3)[C@H]2SC1 [Cefixime]	0
OCCOCCN1CCN(C(c2ccccc2)c2ccc(Cl)cc2)CC1 (configuration not stated) [Hydroxyzine]	0
CC(=O)Oc1c(C)c(C)c2c(c1C)CCC(C)(CCCC(C)CCCC(C)CCCC(C)C)O2 (stereo not drawn) [Alpha-tochopheryl Acetate]	11.1
CCCCC(CC)CN=C(N)N=C(N)NCCCCCCNC(N)=NC(N)=NCC(CC)CCCC (configuration not stated) [Alexidine Hydrochloride]	100
CN(C)[C@@H]1C(O)=C(C(N)=O)C(=O)[C@@]2(O)C(O)=C3C(=O)c4c(O)ccc(Cl)c4[C@@](C)(O)[C@H]3C[C@@H]12 [Chlortetracycline]	10.5
O=C1OC2(c3ccc(O)cc3Oc3cc(O)ccc32)c2ccccc21 [Fluorescein]	17.8
COc1cnc(NS(=O)(=O)c2ccc(N)cc2)nc1 [Sulfameter]	3.85
O=C(O)CCC(=O)Nc1ccc(S(=O)(=O)Nc2nccs2)cc1 [Succinylsulfathiazole]	2.44
O=NN(CCCl)C(=O)NC1CCCCC1 [Lomustine]	2.13
COc1ccccc1O [Guaiacol]	11.1
CCCCC(C)(O)C/C=C/[C@H]1[C@H](O)CC(=O)[C@@H]1CCCCCCC(=O)OC (mixture of isomers) [Misoprostol]	1.85
COc1ccc(C(=O)c2ccc(C)cc2)c(O)c1 [Mexeneone]	16.2
NC(=O)NC(=O)Cc1ccccc1 [Phenacemide]	12.2
CN1[C@@H](CC(=O)c2ccccc2)CCC[C@H]1C[C@H](O)c1ccccc1 [Lobeline]	7.69

Structure (SMILES)	degeneracy [%]
OC[C@@H](O)[C@@H](O[C@@H]1O[C@H](CO)[C@H](O)[C@H](O)[C@H]1O)[C@H](O)[C@@H](O)CO [D-lactitol Monohydrate]	2.44
OC[C@@H](O)[C@@H](O[C@@H]1O[C@H](CO)[C@H](O)[C@H](O)[C@H]1O)[C@H](O)[C@@H](O)CO [Lacitol]	3.45
CC(=O)OCC(=O)[C@@]12N=C(C)O[C@@H]1C[C@H]1[C@@H]3CCC4=CC(=O)C=C[C@]4(C)[C@H]3[C@@H](O)C[C@@]12C [Deflazacort]	3.57
OCc1cc(C(O)CNCCCCCCOCCCCc2ccccc2)ccc1O (configuration not stated) [Salmeterol]	39.3
CC(=O)Nc1ccc(CC(=O)O)cc1 [Actarit]	0
Cc1nc2n(c(=O)c1CCN1CCC(c3noc4cc(F)ccc34)CC1)CCCC2 [Risperidone]	0
O=S(=O)(O)CCS [Mesna]	3.03
CCn1cc(C(=O)O)c(=O)c2cnc(N3CCCC3)nc21 [Piromidic Acid]	2.44
CCCCCCCCCCCCC[N+](C)(C)Cc1ccccc1 [Benzalkonium Chloride]	100
CC(C)(C)NC[C@H](O)c1ccc(O)c(CO)c1 [Levalbuterol Hydrochloride]	11.4
O=C(O)c1cc(-c2ccc(F)cc2F)ccc1O [Diflunisal]	11.5
CCCCNC(=O)NS(=O)(=O)c1ccc(C)cc1 [Tolbutamide]	15.6
CC(=O)[C@H]1CC[C@H]2[C@@H]3C[C@H](C)C4=CC(=O)CC[C@]4(C)[C@H]3[C@@H](O)C[C@]12C [Medrysone]	4.35
CCOC(=O)OC(C)OC1=C(C(=O)Nc2ccccn2)N(C)S(=O)(=O)c2ccccc21 (configuration not stated) [Ampiroxicam]	7.5
CC1(C)NC(=O)N(c2ccc([N+](=O)[O-])c(C(F)(F)F)c2)C1=O [Nilutamide]	2.33
COC(=O)[C@@H]1[C@H]2C[C@H]3c4[nH]c5ccccc5c4CCN3C[C@@H]2CC[C@@H]1O [Yohimbine Hydrochloride]	17.2
COC(=O)[C@@H]1[C@H]2C[C@H]3c4[nH]c5ccccc5c4CCN3C[C@@H]2CC[C@@H]1O [Yohimbine]	61.5
CC(C)NCC(O)COc1cccc2ccccc12 (configuration not stated) [Propranolol]	3.57
CCCCOc1cc(C(=O)NCCN(CC)CC)c2ccccc2n1 [Dibucaine]	8
CC[C@H]1OC(=O)[C@H](C)C(=O)[C@H](C)[C@@H](O[C@@H]2O[C@H](C)C[C@H](N(C)C)[C@H]2O)[C@](C)(OC)C[C@@H](C)C(=O)[C@H](C)[C@H]2N(CCCCn3cnc(-c4cccnc4)c3)C(=O)O[C@]12C [Telithromycin]	0
O=P(O)(O)C(Cl)(Cl)P(=O)(O)O [Clodronic Acid]	14.3
O=C1CCc2cc(OCCCCc3nnnn3C3CCCCC3)ccc2N1 [Cilostazol]	7.14
CCS(=O)(=O)CCn1c([N+](=O)[O-])cnc1C [Tinidazole]	6.45
Fc1ccc([C@@H]2CCNC[C@H]2COc2ccc3c(c2)OCO3)cc1 [Paroxetine]	100

Retrieved one by one from the entries so far (three):
Structure (SMILES)	degeneracy [%]
CCOC(=O)OC(C)OC1=C(C(=O)Nc2ccccn2)N(C)S(=O)(=O)c2ccccc21 (configuration not stated) [Ampiroxicam]	7.5
CCCCOc1cc(C(=O)NCCN(CC)CC)c2ccccc2n1 [Dibucaine]	8
O=C1CCc2cc(OCCCCc3nnnn3C3CCCCC3)ccc2N1 [Cilostazol]	7.14

Look-ups from the results shown:
degeneracy [%], CCOC(=O)OC(C)OC1=C(C(=O)Nc2ccccn2)N(C)S(=O)(=O)c2ccccc21 (configuration not stated) [Ampiroxicam] is entered as 7.5
degeneracy [%], OCc1cc(C(O)CNCCCCCCOCCCCc2ccccc2)ccc1O (configuration not stated) [Salmeterol] is entered as 39.3

Later entries.

Structure (SMILES)	degeneracy [%]
Nc1nc(O)c2ncn(CCC(CO)CO)c2n1 [Penciclovir]	10
O=c1[nH]cnc2c1ncn2[C@H]1CC[C@@H](CO)O1 [Didanosine]	5.88
NCCC[C@H](N)CC(=O)N[C@H]1CNC(=O)[C@H]([C@H]2C[C@H](O)NC(N)=N2)NC(=O)/C(=C/NC(N)=O)NC(=O)[C@H](CO)NC(=O)[C@H](CO)NC1=O [Viomycin Sulfate] (β3hOrn-[Dap]SS[ΔAla(Z-3-ureido)][X1]; lactam 1-C)	6.9
NC(CO)C(=O)NNCc1ccc(O)c(O)c1O (configuration not stated) [Benserazide]	9.52
C[C@H]1COc2c(N3CCN(C)CC3)c(F)cc3c(=O)c(C(=O)O)cn1c23 [Levofloxacin]	4.17
C[N+](C)(C)CCO.[Cl-] [Choline Chloride]	13.2
CN1CCC(OC(c2ccccc2)c2ccccc2)CC1 [Diphenylpyraline Hydrochloride]	7.69
O=C(Oc1cccc2cccnc12)c1ccccc1 [benzoxiquine]	100
CCOC(=O)[C@H](CCc1ccccc1)N[C@@H](C)C(=O)N1Cc2cc(OC)c(OC)cc2C[C@H]1C(=O)O [Moexipril Hydrochloride]	8.7
Clc1ccc(Nc2nnc(Cc3ccncc3)c3ccccc23)cc1 [Vatalanib Dihydrochloride]	21.4
O=C(O)CSCC(=O)NC1CCSC1=O (configuration not stated) [Erdosteine]	0
NCC[C@H](O)C(=O)N[C@@H]1C[C@H](N)[C@@H](O[C@H]2O[C@H](CN)[C@@H](O)[C@H](O)[C@H]2O)[C@H](O)[C@H]1O[C@H]1O[C@H](CO)[C@@H](O)[C@H](N)[C@H]1O [Amikacin Sulfate]	0
CC(C)C(=O)Nc1ccc([N+](=O)[O-])c(C(F)(F)F)c1 [Flutamide]	5.26
C[C@H]1O[C@@H](O[C@H]2CC[C@@]3(C)[C@H](CC[C@@H]4[C@@H]3C[C@@H](O)[C@]3(C)[C@@H](C5=CC(=O)OC5)CC[C@]43O)C2)C[C@H](O)[C@@H]1O[C@H]1C[C@H](O)[C@H](O[C@H]2C[C@H](O)[C@H](O[C@@H]3O[C@H](CO)[C@@H](O)[C@H](O)[C@H]3O)[C@@H](C)O2)[C@@H](C)O1 [Deslanoside]	0
Cn1cnc([N+](=O)[O-])c1Sc1ncnc2[nH]cnc12 [Azathioprine]	8.57
CC(=O)OCC[N+](C)(C)C [Acetylcholine]	17.4
OCCN1C[C@H](O)[C@@H](O)[C@H](O)[C@H]1CO [Miglitol]	0
CC(=O)SCC(Cc1ccccc1)C(=O)NCC(=O)OCc1ccccc1 (configuration not stated) [Racecadotril]	3.7
COC(=O)C1=C(C)NC(C)=C(C(=O)OC(C)C)C1c1cccc2nonc12 (configuration not stated) [Isradipine]	5.88
CN1CCN(c2cc3c(cc2F)c(=O)c(C(=O)O)cn3-c2ccc(F)cc2)CC1 [Difloxacin Hydrochloride]	2.78
O=C(O)CCCC[C@@H]1SC[C@@H]2NC(=O)N[C@@H]21 [Biotin]	2.86
CC(C)NCC(O)c1cc(O)cc(O)c1 (configuration not stated) [Metaproterenol]	3.03
CCC(=O)OCC(=O)[C@@]1(OC(=O)CC)[C@@H](C)C[C@H]2[C@@H]3CCC4=CC(=O)C=C[C@]4(C)[C@@]3(Cl)[C@@H](O)C[C@@]21C [Beclomethasone Dipropionate]	10
CCN(CC)Cc1cc(Nc2ccnc3cc(Cl)ccc23)ccc1O [Amodiaquine Dihydrochloride]	81.8
